Source: the supplement of paper PMC12067093, “Discovery and optimisation of a covalent ligand for TRIM25 and its application to targeted protein ubiquitination” (Chemical Science, 2025)
The other results are listed elsewhere or left out.

The chains behind the UniProt entries cited, without tags or fusion partners. Where a name states a change or a piece, a line headed by the entry shows the natural chain unless it says otherwise.
UniProt Q9H2M9: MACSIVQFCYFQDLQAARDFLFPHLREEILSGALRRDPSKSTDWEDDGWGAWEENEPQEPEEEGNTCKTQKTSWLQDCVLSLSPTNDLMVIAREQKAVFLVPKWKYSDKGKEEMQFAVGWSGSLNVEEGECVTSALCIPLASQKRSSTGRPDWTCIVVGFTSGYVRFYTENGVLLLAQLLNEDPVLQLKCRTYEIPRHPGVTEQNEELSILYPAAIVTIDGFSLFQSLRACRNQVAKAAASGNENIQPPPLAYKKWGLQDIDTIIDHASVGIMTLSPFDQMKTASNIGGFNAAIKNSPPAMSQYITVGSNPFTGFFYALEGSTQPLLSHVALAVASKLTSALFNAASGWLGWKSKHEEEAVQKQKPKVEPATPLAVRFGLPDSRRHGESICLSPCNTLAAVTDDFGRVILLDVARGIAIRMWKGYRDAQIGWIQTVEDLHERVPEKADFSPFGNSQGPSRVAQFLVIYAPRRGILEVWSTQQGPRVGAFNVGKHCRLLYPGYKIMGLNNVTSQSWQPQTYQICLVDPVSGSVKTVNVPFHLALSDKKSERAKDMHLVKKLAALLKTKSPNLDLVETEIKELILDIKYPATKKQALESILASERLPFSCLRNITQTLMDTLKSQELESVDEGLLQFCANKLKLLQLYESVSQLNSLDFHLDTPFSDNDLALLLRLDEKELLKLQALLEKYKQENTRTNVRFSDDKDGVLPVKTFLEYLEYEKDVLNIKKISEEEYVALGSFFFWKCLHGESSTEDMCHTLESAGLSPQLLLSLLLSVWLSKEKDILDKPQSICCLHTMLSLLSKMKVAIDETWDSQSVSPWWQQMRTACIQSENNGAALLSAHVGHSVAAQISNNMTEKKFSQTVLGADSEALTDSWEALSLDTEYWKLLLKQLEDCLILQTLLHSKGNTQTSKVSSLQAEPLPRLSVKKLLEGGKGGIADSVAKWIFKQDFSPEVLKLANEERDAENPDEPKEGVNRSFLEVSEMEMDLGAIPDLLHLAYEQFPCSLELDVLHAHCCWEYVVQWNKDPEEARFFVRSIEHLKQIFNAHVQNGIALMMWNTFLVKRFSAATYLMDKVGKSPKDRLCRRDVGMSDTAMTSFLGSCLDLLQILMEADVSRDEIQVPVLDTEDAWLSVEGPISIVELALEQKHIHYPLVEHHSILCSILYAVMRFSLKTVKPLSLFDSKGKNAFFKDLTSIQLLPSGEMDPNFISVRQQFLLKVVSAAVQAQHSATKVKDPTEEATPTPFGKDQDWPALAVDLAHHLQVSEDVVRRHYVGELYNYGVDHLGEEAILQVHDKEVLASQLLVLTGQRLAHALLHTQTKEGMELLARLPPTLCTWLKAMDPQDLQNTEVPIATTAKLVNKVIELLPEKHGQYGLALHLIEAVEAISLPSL
UniProt Q9Y3T6: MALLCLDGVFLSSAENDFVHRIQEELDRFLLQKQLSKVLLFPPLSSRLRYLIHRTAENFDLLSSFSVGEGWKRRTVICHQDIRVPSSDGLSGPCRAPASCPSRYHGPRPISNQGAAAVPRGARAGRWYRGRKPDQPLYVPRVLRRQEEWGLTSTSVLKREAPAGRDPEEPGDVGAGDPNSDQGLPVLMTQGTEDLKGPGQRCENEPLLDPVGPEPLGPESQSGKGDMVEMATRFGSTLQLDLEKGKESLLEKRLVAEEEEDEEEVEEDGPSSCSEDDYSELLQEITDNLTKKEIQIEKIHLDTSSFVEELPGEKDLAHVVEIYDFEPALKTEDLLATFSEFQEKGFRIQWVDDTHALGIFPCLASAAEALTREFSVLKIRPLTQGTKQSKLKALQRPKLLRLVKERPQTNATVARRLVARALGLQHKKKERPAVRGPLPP
UniProt Q9Y3P9: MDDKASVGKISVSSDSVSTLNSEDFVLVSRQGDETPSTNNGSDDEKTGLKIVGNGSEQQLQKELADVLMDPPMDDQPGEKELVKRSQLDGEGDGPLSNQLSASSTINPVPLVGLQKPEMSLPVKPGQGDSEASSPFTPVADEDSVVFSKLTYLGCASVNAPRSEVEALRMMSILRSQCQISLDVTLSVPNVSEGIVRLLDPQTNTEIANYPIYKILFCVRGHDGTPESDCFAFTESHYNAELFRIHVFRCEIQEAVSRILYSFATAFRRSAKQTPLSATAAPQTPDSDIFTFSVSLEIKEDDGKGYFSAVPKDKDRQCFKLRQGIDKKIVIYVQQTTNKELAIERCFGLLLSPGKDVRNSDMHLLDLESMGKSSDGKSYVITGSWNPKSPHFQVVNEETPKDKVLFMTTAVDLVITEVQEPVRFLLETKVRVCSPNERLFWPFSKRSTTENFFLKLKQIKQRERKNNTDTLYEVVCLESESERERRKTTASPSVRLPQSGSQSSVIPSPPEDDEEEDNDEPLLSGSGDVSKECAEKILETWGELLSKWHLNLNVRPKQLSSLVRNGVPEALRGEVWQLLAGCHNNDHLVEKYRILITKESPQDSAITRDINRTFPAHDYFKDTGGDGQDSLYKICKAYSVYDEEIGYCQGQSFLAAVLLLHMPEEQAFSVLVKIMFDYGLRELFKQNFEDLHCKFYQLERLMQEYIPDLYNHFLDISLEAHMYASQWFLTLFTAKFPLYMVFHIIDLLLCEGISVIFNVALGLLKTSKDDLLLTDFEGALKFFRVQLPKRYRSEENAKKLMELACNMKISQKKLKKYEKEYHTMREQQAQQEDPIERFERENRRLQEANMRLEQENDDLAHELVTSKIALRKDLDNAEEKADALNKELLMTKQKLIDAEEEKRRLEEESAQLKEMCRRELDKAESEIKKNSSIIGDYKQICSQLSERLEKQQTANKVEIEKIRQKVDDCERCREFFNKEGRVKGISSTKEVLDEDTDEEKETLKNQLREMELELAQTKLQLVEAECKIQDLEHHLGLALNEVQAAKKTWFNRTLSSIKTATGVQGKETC
UniProt Q9BXR0: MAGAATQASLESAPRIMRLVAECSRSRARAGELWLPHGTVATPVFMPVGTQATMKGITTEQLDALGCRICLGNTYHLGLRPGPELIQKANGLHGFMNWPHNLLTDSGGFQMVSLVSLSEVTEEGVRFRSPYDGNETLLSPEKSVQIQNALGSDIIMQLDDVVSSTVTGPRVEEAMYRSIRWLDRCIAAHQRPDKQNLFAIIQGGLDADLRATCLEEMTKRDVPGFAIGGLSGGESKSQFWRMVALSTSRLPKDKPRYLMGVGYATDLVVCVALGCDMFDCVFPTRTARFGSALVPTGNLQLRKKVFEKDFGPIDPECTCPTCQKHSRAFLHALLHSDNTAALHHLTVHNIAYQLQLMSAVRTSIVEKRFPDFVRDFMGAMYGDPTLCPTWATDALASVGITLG
UniProt O60671: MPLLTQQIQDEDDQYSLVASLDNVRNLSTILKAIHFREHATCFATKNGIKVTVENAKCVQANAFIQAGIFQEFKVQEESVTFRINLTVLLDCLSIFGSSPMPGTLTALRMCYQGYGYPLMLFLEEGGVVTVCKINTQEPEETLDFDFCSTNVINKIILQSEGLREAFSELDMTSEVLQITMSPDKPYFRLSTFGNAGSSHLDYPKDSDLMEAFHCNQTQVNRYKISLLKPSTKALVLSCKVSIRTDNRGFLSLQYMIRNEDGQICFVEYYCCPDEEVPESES
UniProt Q9NX57: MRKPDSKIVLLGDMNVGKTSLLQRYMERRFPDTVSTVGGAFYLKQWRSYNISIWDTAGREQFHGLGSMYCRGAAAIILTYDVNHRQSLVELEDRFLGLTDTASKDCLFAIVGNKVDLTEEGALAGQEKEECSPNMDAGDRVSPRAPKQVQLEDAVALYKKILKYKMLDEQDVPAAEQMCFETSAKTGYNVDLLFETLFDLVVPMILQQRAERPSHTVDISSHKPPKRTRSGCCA
UniProt Q7Z6M1: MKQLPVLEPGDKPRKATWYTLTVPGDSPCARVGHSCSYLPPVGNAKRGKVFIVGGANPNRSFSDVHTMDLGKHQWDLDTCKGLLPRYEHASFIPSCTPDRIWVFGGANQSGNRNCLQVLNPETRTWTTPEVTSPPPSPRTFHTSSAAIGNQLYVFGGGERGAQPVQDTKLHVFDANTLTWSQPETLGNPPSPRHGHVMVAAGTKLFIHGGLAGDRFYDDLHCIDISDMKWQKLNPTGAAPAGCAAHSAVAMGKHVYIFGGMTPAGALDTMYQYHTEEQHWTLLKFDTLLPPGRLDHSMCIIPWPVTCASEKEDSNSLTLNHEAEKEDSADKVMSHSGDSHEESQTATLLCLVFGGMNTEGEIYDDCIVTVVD
UniProt O60216: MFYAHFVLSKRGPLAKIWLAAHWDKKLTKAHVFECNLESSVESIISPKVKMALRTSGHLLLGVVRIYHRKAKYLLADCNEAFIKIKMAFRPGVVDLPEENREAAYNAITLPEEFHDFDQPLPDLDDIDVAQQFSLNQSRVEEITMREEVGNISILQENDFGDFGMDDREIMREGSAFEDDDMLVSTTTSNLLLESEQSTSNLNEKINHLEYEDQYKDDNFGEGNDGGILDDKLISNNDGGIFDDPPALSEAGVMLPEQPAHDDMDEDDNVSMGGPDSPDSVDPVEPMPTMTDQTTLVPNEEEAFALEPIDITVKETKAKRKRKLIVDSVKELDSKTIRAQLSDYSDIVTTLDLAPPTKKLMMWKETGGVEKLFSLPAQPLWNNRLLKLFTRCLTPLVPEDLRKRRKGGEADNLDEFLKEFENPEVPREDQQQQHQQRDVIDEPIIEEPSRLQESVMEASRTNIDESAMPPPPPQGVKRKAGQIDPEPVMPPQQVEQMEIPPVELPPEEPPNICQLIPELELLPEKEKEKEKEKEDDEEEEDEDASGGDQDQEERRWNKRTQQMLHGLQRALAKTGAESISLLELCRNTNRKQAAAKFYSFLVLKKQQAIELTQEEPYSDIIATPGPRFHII
UniProt Q9H5N1: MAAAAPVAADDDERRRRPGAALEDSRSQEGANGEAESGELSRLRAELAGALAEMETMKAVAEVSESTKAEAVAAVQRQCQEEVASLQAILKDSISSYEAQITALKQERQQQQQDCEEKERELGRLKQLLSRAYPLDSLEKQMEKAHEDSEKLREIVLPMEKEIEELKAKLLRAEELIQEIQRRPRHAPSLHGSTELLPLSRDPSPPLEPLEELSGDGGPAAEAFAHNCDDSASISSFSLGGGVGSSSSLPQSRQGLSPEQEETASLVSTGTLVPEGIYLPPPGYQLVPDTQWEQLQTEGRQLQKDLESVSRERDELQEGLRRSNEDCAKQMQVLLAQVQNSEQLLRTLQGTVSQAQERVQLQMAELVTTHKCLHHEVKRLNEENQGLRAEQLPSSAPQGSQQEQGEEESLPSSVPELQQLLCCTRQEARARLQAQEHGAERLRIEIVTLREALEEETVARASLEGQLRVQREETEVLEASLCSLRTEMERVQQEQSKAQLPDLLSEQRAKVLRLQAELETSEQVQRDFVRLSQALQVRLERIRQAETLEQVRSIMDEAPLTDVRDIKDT
UniProt Q15269: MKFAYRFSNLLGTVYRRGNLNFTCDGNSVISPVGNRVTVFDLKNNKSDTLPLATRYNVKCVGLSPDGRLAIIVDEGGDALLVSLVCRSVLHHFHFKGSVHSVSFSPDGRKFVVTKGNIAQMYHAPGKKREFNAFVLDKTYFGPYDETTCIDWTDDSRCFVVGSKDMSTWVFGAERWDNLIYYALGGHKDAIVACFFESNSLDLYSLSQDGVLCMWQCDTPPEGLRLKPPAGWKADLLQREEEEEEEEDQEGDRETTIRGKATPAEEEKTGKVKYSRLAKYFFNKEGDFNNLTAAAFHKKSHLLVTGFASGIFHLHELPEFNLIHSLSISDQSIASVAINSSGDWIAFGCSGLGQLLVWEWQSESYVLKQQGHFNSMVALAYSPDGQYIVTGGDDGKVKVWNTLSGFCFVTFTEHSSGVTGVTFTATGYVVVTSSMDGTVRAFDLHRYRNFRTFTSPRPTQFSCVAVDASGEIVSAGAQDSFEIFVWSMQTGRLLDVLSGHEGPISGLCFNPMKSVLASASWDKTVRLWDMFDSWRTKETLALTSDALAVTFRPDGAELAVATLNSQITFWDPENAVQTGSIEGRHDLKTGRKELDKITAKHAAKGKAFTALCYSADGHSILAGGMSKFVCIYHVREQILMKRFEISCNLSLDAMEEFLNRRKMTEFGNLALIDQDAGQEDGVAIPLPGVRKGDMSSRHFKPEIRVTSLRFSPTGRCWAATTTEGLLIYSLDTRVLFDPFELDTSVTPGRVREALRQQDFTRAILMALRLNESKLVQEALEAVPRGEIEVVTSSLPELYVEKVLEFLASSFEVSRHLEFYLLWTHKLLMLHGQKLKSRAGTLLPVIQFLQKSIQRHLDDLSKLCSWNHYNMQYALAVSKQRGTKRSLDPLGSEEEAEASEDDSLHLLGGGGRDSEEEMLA
UniProt P61106, whole entry, looked up: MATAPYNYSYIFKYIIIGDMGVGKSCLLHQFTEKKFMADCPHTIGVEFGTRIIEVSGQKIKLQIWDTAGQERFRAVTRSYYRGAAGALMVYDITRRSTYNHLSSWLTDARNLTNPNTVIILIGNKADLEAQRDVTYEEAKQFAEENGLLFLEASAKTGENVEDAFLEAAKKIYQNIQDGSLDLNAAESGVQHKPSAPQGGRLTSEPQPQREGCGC

Compound: CC1Cc2ccccc2N1C(=O)C1CCCN(C1)C(=O)CCl (mixture of isomers) [TRIM25 ligand 11 (diastereomer mixture)]
Assay: probe-labelled cysteine peptide fold change vs DMSO (competition) (log2 fold change); higher = less target engagement (more negative = stronger competition)
Details: 10 µM; THP-1; incubation time: 4 h
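Also: competitive chemoproteomic profiling in live THP-1 cells with an iodoacetamide desthiobiotin (IA-DTB) probe, comparing probe-labelled peptide intensities in compound-treated cells against DMSO-treated controls.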

**Q.** How did the “probe-labelled cysteine peptide fold change” value turn out when “RAB3GAP2_Q9H2M9_896_QLEDCLILQTLLHSK (UniProt Q9H2M9)” was run?
**A.** The value was 0.108.

**Q.** For “R3HCC1_Q9Y3T6_78_TVICHQDIR (UniProt Q9Y3T6+R3HCC1)”, which “probe-labelled cysteine peptide fold change” value is on record?
**A.** Its value is 0.0391.

**Q.** Which “probe-labelled cysteine peptide fold change” value does the source give for “RABGAP1_Q9Y3P9_582_GEVWQLLAGCHNNDHLVEK (UniProt Q9Y3P9)” here?
**A.** The value was 0.0764.

**Q.** With “QTRT1_Q9BXR0_319_DFGPIDPECTCPTCQK (UniProt Q9BXR0)” as the target, how does the “probe-labelled cysteine peptide fold change” value read?
**A.** The value was 0.000815.

**Q.** With “RAD1_O60671_215_DSDLMEAFHCNQTQVNR (UniProt O60671)” as the target, how does the “probe-labelled cysteine peptide fold change” value read?
**A.** Its value is 0.0173.

**Q.** With “RAB3GAP1_Q15042_693_AANPGCSLEDFVR (UniProt Q15042)” as the target, how does the “probe-labelled cysteine peptide fold change” value read?
**A.** Its value is -0.105.

**Q.** Which “probe-labelled cysteine peptide fold change” value does the source give for “QARS_P47897_657+665_GPSGCVESLEVTCR (UniProt P47897)” here?
**A.** The value was -0.0537.

**Q.** For “RAB20_Q9NX57_179_MLDEQDVPAAEQMCFETSAK (UniProt Q9NX57)”, which “probe-labelled cysteine peptide fold change” value is on record?
**A.** The value was -0.154.

**Q.** How did the “probe-labelled cysteine peptide fold change” value turn out when “RABEPK_Q7Z6M1_36_VGHSCSYLPPVGNAK (UniProt Q7Z6M1)” was run?
**A.** Its value is -0.135.

**Q.** With “RAD21_O60216_35_AHVFECNLESSVESIISPK (UniProt O60216)” as the target, how does the “probe-labelled cysteine peptide fold change” value read?
**A.** Its value is 0.0257.

**Q.** “RABEP2_Q9H5N1_482_VQREETEVLEASLCSLR (UniProt Q9H5N1)” was tested. Which “probe-labelled cysteine peptide fold change” value did it give?
**A.** Its value is -0.0883.

**Q.** How did the “probe-labelled cysteine peptide fold change” value turn out when “PXN_P49023_443_TWHPEHFFCAQCGAFFGPEGFHEK (UniProt P49023)” was run?
**A.** Its value is 0.143.

**Q.** For “PWP2_Q15269_630_FVCIYHVR (UniProt Q15269)”, which “probe-labelled cysteine peptide fold change” value is on record?
**A.** Its value is 0.216.

**Q.** With “RAD21_O60216_585_TGAESISLLELCR (UniProt O60216)” as the target, how does the “probe-labelled cysteine peptide fold change” value read?
**A.** The value was 0.0789.

**Q.** “RAB9A_P51151_142_QVSTEEAQAWCR (UniProt P51151)” was tested. Which “probe-labelled cysteine peptide fold change” value did it give?
**A.** The value was -0.0259.

**Q.** With “RAB14_P61106_40_FMADCPHTIGVEFGTR (UniProt P61106)” as the target, how does the “probe-labelled cysteine peptide fold change” value read?
**A.** The value was 0.129.
